Experimental findings from the supplement of paper PMC12067093, “Discovery and optimisation of a covalent ligand for TRIM25 and its application to targeted protein ubiquitination” (Chemical Science, 2025) are described below.

By UniProt entry, the sequences of proteins in these tests, tags left out. Where a name states a change or a piece, a line headed by the entry shows the natural chain unless it says otherwise.
UniProt O43324: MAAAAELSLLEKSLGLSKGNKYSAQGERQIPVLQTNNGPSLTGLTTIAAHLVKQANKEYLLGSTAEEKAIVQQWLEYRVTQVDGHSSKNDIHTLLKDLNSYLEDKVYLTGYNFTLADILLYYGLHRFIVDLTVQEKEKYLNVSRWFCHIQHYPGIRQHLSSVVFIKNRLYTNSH
UniProt Q15029: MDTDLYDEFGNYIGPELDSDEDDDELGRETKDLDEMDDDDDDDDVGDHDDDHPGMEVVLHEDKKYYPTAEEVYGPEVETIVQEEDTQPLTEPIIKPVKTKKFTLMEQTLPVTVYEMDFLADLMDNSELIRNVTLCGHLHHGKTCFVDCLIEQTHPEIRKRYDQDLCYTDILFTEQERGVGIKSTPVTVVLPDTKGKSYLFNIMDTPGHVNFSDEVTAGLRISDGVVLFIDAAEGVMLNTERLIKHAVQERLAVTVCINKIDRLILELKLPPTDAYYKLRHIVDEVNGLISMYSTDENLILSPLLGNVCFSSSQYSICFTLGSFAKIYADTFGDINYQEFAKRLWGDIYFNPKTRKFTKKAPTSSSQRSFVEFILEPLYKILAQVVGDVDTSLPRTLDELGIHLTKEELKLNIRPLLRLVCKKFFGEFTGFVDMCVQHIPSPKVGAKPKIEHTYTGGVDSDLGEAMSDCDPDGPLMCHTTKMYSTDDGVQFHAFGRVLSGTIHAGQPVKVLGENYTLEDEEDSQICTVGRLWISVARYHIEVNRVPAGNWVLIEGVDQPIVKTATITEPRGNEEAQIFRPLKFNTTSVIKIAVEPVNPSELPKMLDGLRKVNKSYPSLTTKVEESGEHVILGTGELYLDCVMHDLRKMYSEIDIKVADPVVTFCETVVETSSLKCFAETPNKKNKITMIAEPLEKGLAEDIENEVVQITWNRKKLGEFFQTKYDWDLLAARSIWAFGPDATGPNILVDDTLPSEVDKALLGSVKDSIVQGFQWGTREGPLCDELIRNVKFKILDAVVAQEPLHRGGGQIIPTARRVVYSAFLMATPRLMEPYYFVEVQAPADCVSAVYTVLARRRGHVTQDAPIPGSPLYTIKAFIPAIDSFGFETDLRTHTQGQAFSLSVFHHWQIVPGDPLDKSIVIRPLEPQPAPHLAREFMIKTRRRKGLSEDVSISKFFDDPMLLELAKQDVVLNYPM
UniProt P41214: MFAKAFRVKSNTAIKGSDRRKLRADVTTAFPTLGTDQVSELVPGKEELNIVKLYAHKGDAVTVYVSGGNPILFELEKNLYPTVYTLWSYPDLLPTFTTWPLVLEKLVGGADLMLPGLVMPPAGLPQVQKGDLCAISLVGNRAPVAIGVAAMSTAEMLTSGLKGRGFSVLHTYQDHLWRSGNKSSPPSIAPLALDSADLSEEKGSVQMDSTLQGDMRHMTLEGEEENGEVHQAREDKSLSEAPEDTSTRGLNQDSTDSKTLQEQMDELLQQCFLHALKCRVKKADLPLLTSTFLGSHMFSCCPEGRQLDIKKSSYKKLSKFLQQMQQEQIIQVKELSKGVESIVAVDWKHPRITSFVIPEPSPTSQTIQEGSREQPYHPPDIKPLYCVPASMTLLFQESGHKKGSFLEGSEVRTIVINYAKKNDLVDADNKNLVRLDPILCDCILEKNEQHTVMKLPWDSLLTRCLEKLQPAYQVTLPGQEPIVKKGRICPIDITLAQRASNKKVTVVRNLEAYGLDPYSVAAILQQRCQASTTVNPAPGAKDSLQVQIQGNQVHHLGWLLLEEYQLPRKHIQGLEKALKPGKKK
UniProt P20042, whole entry, looked up: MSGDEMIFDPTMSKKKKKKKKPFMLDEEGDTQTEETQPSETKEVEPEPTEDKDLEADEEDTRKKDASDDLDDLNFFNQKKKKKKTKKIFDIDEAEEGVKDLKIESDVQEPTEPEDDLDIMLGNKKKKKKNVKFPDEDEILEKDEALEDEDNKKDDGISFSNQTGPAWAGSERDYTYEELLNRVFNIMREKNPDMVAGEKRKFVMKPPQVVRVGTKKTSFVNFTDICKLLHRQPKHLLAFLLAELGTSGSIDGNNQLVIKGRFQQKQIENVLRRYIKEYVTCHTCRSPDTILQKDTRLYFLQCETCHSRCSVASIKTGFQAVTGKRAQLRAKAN
UniProt Q9GZT9: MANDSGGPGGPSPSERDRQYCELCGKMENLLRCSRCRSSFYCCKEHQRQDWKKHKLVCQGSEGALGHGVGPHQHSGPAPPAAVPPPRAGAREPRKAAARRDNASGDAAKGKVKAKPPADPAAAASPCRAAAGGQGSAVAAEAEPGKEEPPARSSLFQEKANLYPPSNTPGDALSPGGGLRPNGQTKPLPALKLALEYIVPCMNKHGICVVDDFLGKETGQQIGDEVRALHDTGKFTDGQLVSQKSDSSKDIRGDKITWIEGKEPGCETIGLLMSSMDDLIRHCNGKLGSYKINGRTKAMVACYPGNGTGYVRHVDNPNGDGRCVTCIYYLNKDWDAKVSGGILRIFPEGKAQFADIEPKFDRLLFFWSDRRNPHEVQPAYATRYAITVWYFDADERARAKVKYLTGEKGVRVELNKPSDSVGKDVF
UniProt Q96KQ7: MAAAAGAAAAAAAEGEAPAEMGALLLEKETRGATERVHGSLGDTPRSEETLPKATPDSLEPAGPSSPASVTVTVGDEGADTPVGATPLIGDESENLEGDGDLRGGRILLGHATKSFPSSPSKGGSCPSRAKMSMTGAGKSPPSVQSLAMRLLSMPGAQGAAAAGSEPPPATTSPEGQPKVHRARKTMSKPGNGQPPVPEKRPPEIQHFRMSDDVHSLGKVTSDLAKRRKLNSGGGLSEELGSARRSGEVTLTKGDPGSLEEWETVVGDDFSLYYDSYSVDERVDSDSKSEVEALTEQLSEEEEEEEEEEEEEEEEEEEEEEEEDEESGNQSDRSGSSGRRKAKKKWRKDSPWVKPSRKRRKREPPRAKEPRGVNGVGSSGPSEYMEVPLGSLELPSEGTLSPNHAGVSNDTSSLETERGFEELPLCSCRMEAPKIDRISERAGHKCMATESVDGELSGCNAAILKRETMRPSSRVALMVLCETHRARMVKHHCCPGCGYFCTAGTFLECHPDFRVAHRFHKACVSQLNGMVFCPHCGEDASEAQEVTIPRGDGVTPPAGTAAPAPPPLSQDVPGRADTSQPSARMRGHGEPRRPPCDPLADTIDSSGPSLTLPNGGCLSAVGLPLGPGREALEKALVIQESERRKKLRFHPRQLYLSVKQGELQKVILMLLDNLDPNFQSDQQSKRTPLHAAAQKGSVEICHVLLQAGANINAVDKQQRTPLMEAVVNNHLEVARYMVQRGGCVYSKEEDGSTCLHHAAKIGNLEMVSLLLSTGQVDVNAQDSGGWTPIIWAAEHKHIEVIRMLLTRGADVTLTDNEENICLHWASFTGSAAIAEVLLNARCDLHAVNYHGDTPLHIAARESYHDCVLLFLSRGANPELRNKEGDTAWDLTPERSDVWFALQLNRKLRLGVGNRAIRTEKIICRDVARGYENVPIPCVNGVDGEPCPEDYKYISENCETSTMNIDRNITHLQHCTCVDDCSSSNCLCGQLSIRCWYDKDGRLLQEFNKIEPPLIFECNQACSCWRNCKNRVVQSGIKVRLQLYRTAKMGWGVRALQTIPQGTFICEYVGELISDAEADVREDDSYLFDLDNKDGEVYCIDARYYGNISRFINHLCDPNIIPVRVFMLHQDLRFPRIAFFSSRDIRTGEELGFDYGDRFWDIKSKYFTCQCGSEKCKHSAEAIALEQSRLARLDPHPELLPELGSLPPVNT
UniProt P49770: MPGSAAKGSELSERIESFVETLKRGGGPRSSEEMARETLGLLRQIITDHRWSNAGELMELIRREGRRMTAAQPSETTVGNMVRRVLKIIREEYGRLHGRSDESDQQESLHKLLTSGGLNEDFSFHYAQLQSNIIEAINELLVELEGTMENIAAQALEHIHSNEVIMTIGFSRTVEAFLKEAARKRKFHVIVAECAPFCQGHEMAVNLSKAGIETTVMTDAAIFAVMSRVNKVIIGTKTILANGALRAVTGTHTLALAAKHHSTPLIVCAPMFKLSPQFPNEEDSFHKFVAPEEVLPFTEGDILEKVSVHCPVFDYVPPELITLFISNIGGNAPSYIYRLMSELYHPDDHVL
UniProt Q12805: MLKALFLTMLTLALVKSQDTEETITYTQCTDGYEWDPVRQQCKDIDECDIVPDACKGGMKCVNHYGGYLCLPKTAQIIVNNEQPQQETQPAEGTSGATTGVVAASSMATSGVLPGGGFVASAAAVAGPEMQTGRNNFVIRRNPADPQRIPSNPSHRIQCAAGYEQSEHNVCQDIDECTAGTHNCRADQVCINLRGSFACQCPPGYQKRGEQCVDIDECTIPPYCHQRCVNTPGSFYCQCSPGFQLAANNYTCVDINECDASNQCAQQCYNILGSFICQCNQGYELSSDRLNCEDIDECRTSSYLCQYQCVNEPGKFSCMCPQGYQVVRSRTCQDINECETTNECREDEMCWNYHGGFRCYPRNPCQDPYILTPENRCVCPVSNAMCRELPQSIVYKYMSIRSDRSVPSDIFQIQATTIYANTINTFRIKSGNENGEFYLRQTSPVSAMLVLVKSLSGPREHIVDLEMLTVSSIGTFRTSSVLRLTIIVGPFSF
UniProt Q5JPI9: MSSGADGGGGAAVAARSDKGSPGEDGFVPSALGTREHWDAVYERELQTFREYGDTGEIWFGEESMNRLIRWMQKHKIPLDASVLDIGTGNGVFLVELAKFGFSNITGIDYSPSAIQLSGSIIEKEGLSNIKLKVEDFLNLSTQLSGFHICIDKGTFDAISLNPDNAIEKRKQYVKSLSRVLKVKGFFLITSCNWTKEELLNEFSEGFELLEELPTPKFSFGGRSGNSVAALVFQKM

Compound in the test: Cc1cc(ccc1-c1ccccc1)C(=O)N1CCCN(CC1)C(=O)CCl [compound 10]
Description: probe-labelled cysteine peptide fold change vs DMSO (competition) (log2 fold change); higher = less target engagement (more negative = stronger competition). Particulars: THP-1, incubation time: 4 h.

Some of the results follow.
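Also: competitive profiling in live THP-1 cells: cysteine peptides tagged with an iodoacetamide desthiobiotin (IA-DTB) probe, intensity after compound treatment relative to DMSO-treated cells.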

On to “EEF1E1_O43324_147_WFCHIQHYPGIR (UniProt O43324)”, for which the “probe-labelled cysteine peptide fold change” value reads like this: (10 µM) 0.0712; (50 µM) 0.339.
For “EFTUD2_Q15029_639_VEESGEHVILGTGELYLDCVMHDLRK (UniProt Q15029)” the same measures were 0.0466 and 0.0835.
On the same counts, the results for “EIF2D_P41214_271_TLQEQMDELLQQCFLHALK (UniProt P41214)” are 0.24 and -0.407.
On the same counts, the results for “EFTUD2_Q15029_144_TCFVDCLIEQTHPEIRK (UniProt Q15029)” are -0.115 and -0.232.
Turning to “EEF2_P13639_290_TFCQLILDPIFK (UniProt P13639)”, the “probe-labelled cysteine peptide fold change” value runs as follows: (10 µM) -0.136; (50 µM) -0.00556.
On the same counts, the results for “EEF2_P13639_751_LMEPIYLVEIQCPEQVVGGIYGVLNR (UniProt P13639)” are 0.113 and 0.132.
On the same counts, the results for “EIF2S2_P20042_226_KTSFVNFTDICK (UniProt P20042)” are 0.0304 and -0.239.
On the same counts, the results for “EGLN1_Q9GZT9_323_CVTCIYYLNK (UniProt Q9GZT9)” are 0.243 and 0.0517.
Regarding “EFTUD2_Q15029_144+148_TCFVDCLIEQTHPEIR (UniProt Q15029)”, the “probe-labelled cysteine peptide fold change” value by setting is: (10 µM) -0.176; (50 µM) -0.0405.
For “EHMT2_Q96KQ7_1170_YFTCQCGSEK (UniProt Q96KQ7)” the same measures were 0.269 and 0.49.
For “EHMT2_Q96KQ7_842_CDLHAVNYHGDTPLHIAAR (UniProt Q96KQ7)” the same measures were 0.0988 and 0.147.
Take “EIF2B2_P49770_194+198_FHVIVAECAPFCQGHEMAVNLSK (UniProt P49770)”: the “probe-labelled cysteine peptide fold change” value came to 0.0606 (10 µM) and 0.24 (50 µM).
As to “EFEMP1_Q12805_298_LNCEDIDECR (UniProt Q12805)”, the “probe-labelled cysteine peptide fold change” value by setting is: (10 µM) -0.427; (50 µM) -0.0208.
Turning to “EEF1AKMT2_Q5JPI9_150_LKVEDFLNLSTQLSGFHICIDK (UniProt Q5JPI9)”, the “probe-labelled cysteine peptide fold change” value was 0.128 (10 µM) and -0.101 (50 µM).
